Data published in patent US20120149631A1 (priority 2009, published 2012).
“And” between values parts separate entries of the source, which are not always exact repeats. Equal entries are not always repeated. Where two headings read alike, the source gives them in different places. At least one peptide structure holds a part that was inferred or is arguable (an end, a ring closure or a residue). No end group written: not given here.

Key:
[1] = tested on: K12 E. coli (ATCC #25404); settings: for Hill Slope: E. coli dose-response fit

KRAKKFFKKLK-NH2 [ATRA-1A]
EC50 ([1]; E. coli K12): 0.932 µg/mL and 0.939 µg/mL
Hill Slope [1]: 1.04
EC50 (F. novicida): 11.34 µg/mL

KRFKKFFKKPK-NH2 [ATRA-1P]
EC50 ([1]; E. coli K12): 7.05 µg/mL
Hill Slope [1]: 1.27
EC50 ([1]; E. coli, 3 h incubation, CFU enumeration): 7.05 µg/mL
EC50 (F. novicida): 141.3 µg/mL
